{"source": "patent US11180744B2", "about": "“Acinetobacter lysins” (priority 2014, dated 2021)", "key": {"[1]": {"test_system": "A. baumannii strain #1791", "assay": "Bactericidal activity against log phase and stationary phase", "conditions": "50 μg/mL, 2 hours, room temperature"}, "[2]": {"test_system": "A. baumannii strains", "assay": "P307Ex and P307 antibacterial activity, colony counts (Example 8)", "conditions": "A. baumannii 1791 (Table 6)"}, "[3]": {"test_system": "A. baumannii strain #1791 biofilm", "assay": "Killing of in vitro biofilm in catheters", "conditions": "250 μg/mL"}, "[4]": {"test_system": "K. pneumoniae", "assay": "Bactericidal activity at pH 8.8", "type": "cell-based", "conditions": "pH 8.8 (resistant at pH 7.5)"}, "[5]": {"test_system": "A. baumannii strains #1791 and S5", "assay": "SYTOX Green uptake assay (membrane permeability)", "type": "cell-based", "conditions": "50 μg/ml; 14.7 μM P307, 11.6 μM P307SQ-8C; 2 hours"}, "[6]": {"test_system": "DNA", "assay": "DNA shift on agarose gel", "type": "binding", "conditions": "peptide:DNA ratios 0:1-15:1, 1 hour"}, "[7]": {"test_system": "A. baumannii strain #1791", "assay": "Effects of pH, NaCl, concentration, time and temperature on bactericidal activity", "type": "cell-based"}, "[8]": {"test_system": "E. coli", "assay": "Bactericidal activity at pH 8.8", "type": "cell-based", "conditions": "pH 8.8 (resistant at pH 7.5)"}, "[9]": {"test_system": "A. baumannii strains #1791 and ATCC17978", "conditions": "Mueller-Hinton broth (pH 7.9), 37° C., 24 hour"}, "[10]": {"test_system": "A. baumannii strains #1791, S5 and ATCC17978", "assay": "In vitro bactericidal activities of peptides (Example 10)", "type": "cell-based", "conditions": "50 μg/mL"}, "[11]": {"test_system": "A. baumannii strains", "assay": "P307 against 18 clinical isolates, counting of colony forming units", "conditions": "for Log drop / P307 1, colony forming units / P307 2, colony forming units / P307 Average, colony forming units: 250 ug/ml P307, 60 minutes, room temperature"}}, "note": "Read-outs that look alike come from different tables or passages of the source. At least one peptide structure holds a part that was inferred or is arguable (an end, a ring closure or a residue). Where no end group is shown, it is not given here.", "data": [{"sequence": "NAKDYKGAAAEFPKWNKAGGRVLAGLVKRRK [P307]", "values": [{"measurement": "decrease in viable bacteria", "setting": "[1]; log phase", "result": "about 3.7 log-unit"}, {"measurement": "decrease in viable bacteria", "setting": "[1]; stationary phase", "result": "~2.4", "unit": "log-unit"}, {"measurement": "average colony count", "setting": "[2]", "result": "4.75E+05"}, {"measurement": "colony count, sample 1", "setting": "[2]", "result": "5.80E+05"}, {"measurement": "colony count, sample 2", "setting": "[2]", "result": "3.70E+05"}, {"measurement": "difference (average control / average peptide)", "setting": "[2]", "result": "8.53E+02"}, {"measurement": "log drop", "setting": "[2]", "result": 2.9, "unit": "log"}, {"measurement": "decrease in cfu/mL", "setting": "[3]; after 2 hours", "result": "about 3 log-unit"}, {"measurement": "additional decrease in cfu/mL", "setting": "[3]; after 24 hours", "result": "about 1.3 log-unit"}, {"measurement": "sensitivity at pH 8.8", "setting": "[4]", "result": "sensitive"}, {"measurement": "membrane permeabilization (SYTOX Green fluorescence)", "setting": "[5]", "result": "permeabilize the membranes of sensitive bacteria"}, {"measurement": "shift of DNA on agarose gel", "setting": "[6]", "result": "no shift in molecular weight was observed"}, {"measurement": "effect of NaCl on activity", "setting": "[7]; 50 μg/mL", "result": "inversely proportional to the concentration of NaCl"}, {"measurement": "concentration from which activity begins (titration)", "setting": "[7]; 50 mM Tris-HCl, pH 7.5", "result": "≥ 4", "unit": "µg/mL"}, {"measurement": "difference in activity at room temperature or 37° C.", "setting": "[7]; data not shown", "result": "no difference"}, {"measurement": "sensitivity at pH 8.8", "setting": "[8]", "result": "sensitive"}, {"measurement": "MIC", "setting": "[9]; strain #1791", "result": 375, "unit": "µg/mL"}, {"measurement": "MIC", "setting": "[9]; strain ATCC17978", "result": 750, "unit": "µg/mL"}, {"measurement": "relative bactericidal activity among P307, P307AE-8 and P307SQ-8C", "setting": "[10]", "result": "slightly more active than P307AE-8"}, {"measurement": "decrease in viable bacteria", "setting": "[10]; 2 hours, room temperature", "result": "~3.8", "unit": "log-unit"}, {"measurement": "activity compared with the full length F307 polypeptide", "setting": "[11]", "result": "higher activity"}, {"measurement": "Log drop", "setting": "[11]; strain 1775", "result": 1.34, "unit": "log"}, {"measurement": "P307 1, colony forming units", "setting": "[11]; strain 1775", "result": "1.00E+07"}, {"measurement": "P307 2, colony forming units", "setting": "[11]; strain 1775", "result": "1.50E+07"}, {"measurement": "P307 Average, colony forming units", "setting": "[11]; strain 1775", "result": "1.25E+07"}, {"measurement": "Log drop", "setting": "[11]; strain 1776", "result": 2.74, "unit": "log"}, {"measurement": "P307 1, colony forming units", "setting": "[11]; strain 1776", "result": "8.80E+05"}, {"measurement": "P307 2, colony forming units", "setting": "[11]; strain 1776", "result": "7.50E+05"}, {"measurement": "P307 Average, colony forming units", "setting": "[11]; strain 1776", "result": "8.15E+05"}, {"measurement": "Log drop", "setting": "[11]; strain 1777", "result": 1.85, "unit": "log"}, {"measurement": "P307 1, colony forming units", "setting": "[11]; strain 1777", "result": "6.50E+06"}, {"measurement": "P307 2, colony forming units", "setting": "[11]; strain 1777", "result": "9.00E+06"}, {"measurement": "P307 Average, colony forming units", "setting": "[11]; strain 1777", "result": "7.75E+06"}, {"measurement": "Log drop", "setting": "[11]; strain 1788", "result": 1.27, "unit": "log"}, {"measurement": "P307 1, colony forming units", "setting": "[11]; strain 1788", "result": "1.50E+07"}, {"measurement": "P307 2, colony forming units", "setting": "[11]; strain 1788", "result": "1.20E+07"}, {"measurement": "P307 Average, colony forming units", "setting": "[11]; strain 1788", "result": "1.35E+07"}, {"measurement": "Log drop", "setting": "[11]; strain 1789", "result": 1.52, "unit": "log"}, {"measurement": "P307 1, colony forming units", "setting": "[11]; strain 1789", "result": "1.10E+07"}, {"measurement": "P307 2, colony forming units", "setting": "[11]; strain 1789", "result": "1.30E+07"}, {"measurement": "P307 Average, colony forming units", "setting": "[11]; strain 1789", "result": "1.20E+07"}, {"measurement": "Log drop", "setting": "[11]; strain 1790", "result": 2.68, "unit": "log"}, {"measurement": "P307 1, colony forming units", "setting": "[11]; strain 1790", "result": "5.50E+05"}, {"measurement": "P307 2, colony forming units", "setting": "[11]; strain 1790", "result": "1.80E+05"}, {"measurement": "P307 Average, colony forming units", "setting": "[11]; strain 1790", "result": "3.65E+05"}, {"measurement": "Log drop", "setting": "[11]; strain 1791", "result": 3.49, "unit": "log"}, {"measurement": "P307 1, colony forming units", "setting": "[11]; strain 1791", "result": "2.2E+05"}, {"measurement": "P307 2, colony forming units", "setting": "[11]; strain 1791", "result": "2.2E+05"}, {"measurement": "P307 Average, colony forming units", "setting": "[11]; strain 1791", "result": "2.2E+05"}, {"measurement": "Log drop", "setting": "[11]; strain 1792", "result": 3.15, "unit": "log"}, {"measurement": "P307 1, colony forming units", "setting": "[11]; strain 1792", "result": "7.1E+05"}, {"measurement": "P307 2, colony forming units", "setting": "[11]; strain 1792", "result": "7.5E+05"}, {"measurement": "P307 Average, colony forming units", "setting": "[11]; strain 1792", "result": "7.3E+05"}, {"measurement": "Log drop", "setting": "[11]; strain 1793", "result": 2.85, "unit": "log"}, {"measurement": "P307 1, colony forming units", "setting": "[11]; strain 1793", "result": "6.5E+05"}, {"measurement": "P307 2, colony forming units", "setting": "[11]; strain 1793", "result": "5.6E+05"}, {"measurement": "P307 Average, colony forming units", "setting": "[11]; strain 1793", "result": "6.1E+05"}, {"measurement": "Log drop", "setting": "[11]; strain 1794", "result": 2.95, "unit": "log"}, {"measurement": "P307 1, colony forming units", "setting": "[11]; strain 1794", "result": "7.0E+05"}, {"measurement": "P307 2, colony forming units", "setting": "[11]; strain 1794", "result": "6.0E+05"}, {"measurement": "P307 Average, colony forming units", "setting": "[11]; strain 1794", "result": "6.5E+05"}, {"measurement": "Log drop", "setting": "[11]; strain 1795", "result": 1.82, "unit": "log"}, {"measurement": "P307 1, colony forming units", "setting": "[11]; strain 1795", "result": "9.0E+06"}, {"measurement": "P307 2, colony forming units", "setting": "[11]; strain 1795", "result": "2.5E+07"}, {"measurement": "P307 Average, colony forming units", "setting": "[11]; strain 1795", "result": "1.7E+07"}, {"measurement": "Log drop", "setting": "[11]; strain 1796", "result": 3.02, "unit": "log"}, {"measurement": "P307 1, colony forming units", "setting": "[11]; strain 1796", "result": "8.2E+05"}, {"measurement": "P307 2, colony forming units", "setting": "[11]; strain 1796", "result": "8.2E+05"}, {"measurement": "P307 Average, colony forming units", "setting": "[11]; strain 1796", "result": "8.2E+05"}, {"measurement": "Log drop", "setting": "[11]; strain 1797", "result": 3.20, "unit": "log"}, {"measurement": "P307 1, colony forming units", "setting": "[11]; strain 1797", "result": "6.7E+05"}, {"measurement": "P307 2, colony forming units", "setting": "[11]; strain 1797", "result": "6.5E+05"}, {"measurement": "P307 Average, colony forming units", "setting": "[11]; strain 1797", "result": "6.6E+05"}, {"measurement": "Log drop", "setting": "[11]; strain 1798", "result": 2.94, "unit": "log"}, {"measurement": "Log drop", "setting": "[11]; strain 1799", "result": 1.40, "unit": "log"}, {"measurement": "P307 1, colony forming units", "setting": "[11]; strain 1799", "result": "2.9E+07"}, {"measurement": "P307 2, colony forming units", "setting": "[11]; strain 1799", "result": "7.0E+06"}, {"measurement": "P307 Average, colony forming units", "setting": "[11]; strain 1799", "result": "1.8E+07"}, {"measurement": "Log drop", "setting": "[11]; strain S1", "result": 1.54, "unit": "log"}, {"measurement": "P307 2, colony forming units", "setting": "[11]; strain S1", "result": "3.0E+07"}, {"measurement": "P307 Average, colony forming units", "setting": "[11]; strain S1", "result": "3.6E+07"}, {"measurement": "Log drop", "setting": "[11]; strain S3", "result": 2.53, "unit": "log"}, {"measurement": "P307 1, colony forming units", "setting": "[11]; strain S3", "result": "6.8E+05"}, {"measurement": "P307 2, colony forming units", "setting": "[11]; strain S3", "result": "6.5E+05"}, {"measurement": "P307 Average, colony forming units", "setting": "[11]; strain S3", "result": "6.7E+05"}, {"measurement": "Log drop", "setting": "[11]; strain S5", "result": 8.99, "unit": "log"}, {"measurement": "P307 1, colony forming units", "setting": "[11]; strain S5", "result": "1.0E+00"}, {"measurement": "P307 2, colony forming units", "setting": "[11]; strain S5", "result": "1.0E+00"}, {"measurement": "P307 Average, colony forming units", "setting": "[11]; strain S5", "result": "1.0E+00"}]}]}
